PMC9830511, “Flot2 acts as a novel mediator of podocyte injury in proteinuric kidney disease” (International Journal of Biological Sciences, 2023)
These are yes or no findings as the source states them, for the method shown. Binding seen in cells or lysates may run through a third protein. Some binding calls cover weakened binding; strength is not graded here. For part of these data: Tags and fused reporters may be left off the sequences shown. One block for each binder: values may come before it.

Columns and labels:
[1] = biological target: T1, Flag-tagged Full-length podocin (amino acids 1-385) (UniProt Q91X05); experiment: co-IP; HA-tagged Flot2 constructs and Flag-tagged podocin constructs expressed in HEK-293T cells; immunoprecipitation with anti-HA or anti-Flag (IgG as control), immunoblot for the other tag
T1 sequence: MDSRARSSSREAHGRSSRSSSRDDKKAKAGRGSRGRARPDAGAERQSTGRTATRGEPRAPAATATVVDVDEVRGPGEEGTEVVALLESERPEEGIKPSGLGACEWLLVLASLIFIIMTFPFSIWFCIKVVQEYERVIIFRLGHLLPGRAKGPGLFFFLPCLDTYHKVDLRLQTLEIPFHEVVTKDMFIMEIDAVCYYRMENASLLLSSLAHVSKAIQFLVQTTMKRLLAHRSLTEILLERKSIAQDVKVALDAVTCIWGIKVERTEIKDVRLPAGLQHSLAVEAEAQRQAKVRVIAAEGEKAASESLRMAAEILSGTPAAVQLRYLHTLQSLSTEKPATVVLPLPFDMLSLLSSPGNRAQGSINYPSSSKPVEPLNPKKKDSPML

[2] = biological target: T2, Flag-tagged podocin domain P3 (amino acids 128-284) (UniProt Q91X05); experiment: as above
T2 sequence: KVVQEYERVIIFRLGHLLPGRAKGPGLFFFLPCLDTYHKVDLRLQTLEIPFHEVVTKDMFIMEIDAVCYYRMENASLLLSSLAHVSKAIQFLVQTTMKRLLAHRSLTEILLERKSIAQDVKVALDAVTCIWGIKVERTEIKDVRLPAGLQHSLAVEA

[3] = biological target: T3, Flag-tagged podocin domains P2+3 (amino acids 107-284) (UniProt Q91X05); experiment: as above
T3 sequence: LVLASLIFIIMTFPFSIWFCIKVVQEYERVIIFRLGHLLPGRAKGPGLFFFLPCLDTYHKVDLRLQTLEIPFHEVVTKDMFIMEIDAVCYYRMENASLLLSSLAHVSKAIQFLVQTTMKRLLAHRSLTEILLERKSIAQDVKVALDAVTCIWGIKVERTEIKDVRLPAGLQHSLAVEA

[4] = biological target: T4, Flag-tagged podocin domains P3+4 (amino acids 128-385) (UniProt Q91X05); experiment: as above
T4 sequence: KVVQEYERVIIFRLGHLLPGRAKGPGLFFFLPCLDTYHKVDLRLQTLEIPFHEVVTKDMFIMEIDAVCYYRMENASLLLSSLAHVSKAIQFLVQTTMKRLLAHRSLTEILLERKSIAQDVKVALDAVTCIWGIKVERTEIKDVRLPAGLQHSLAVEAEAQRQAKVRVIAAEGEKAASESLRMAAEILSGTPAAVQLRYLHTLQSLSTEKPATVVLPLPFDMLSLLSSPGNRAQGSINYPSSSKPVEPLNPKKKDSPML

[5] = biological target: T5, Flag-tagged podocin domains p2+3+4 (amino acids 107-385) (UniProt Q91X05); experiment: as above
T5 sequence: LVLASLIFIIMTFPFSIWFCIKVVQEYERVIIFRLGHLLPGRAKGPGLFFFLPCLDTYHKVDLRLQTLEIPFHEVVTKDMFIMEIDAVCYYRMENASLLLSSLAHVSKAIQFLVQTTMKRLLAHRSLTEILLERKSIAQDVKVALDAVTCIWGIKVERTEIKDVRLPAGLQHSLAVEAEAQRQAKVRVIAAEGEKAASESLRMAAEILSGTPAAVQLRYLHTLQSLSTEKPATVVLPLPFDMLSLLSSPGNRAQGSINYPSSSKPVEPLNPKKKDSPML

[6] = biological target: T6, Podocin, endogenous (mouse (endogenous in differentiated mouse podocytes and C57Bl/6 renal cortex)) (UniProt Q91X05); experiment: co-IP; endogenous proteins in renal cortex lysates from C57Bl/6 mice; reciprocal immunoprecipitation with anti-flot2 or anti-podocin
T6 sequence: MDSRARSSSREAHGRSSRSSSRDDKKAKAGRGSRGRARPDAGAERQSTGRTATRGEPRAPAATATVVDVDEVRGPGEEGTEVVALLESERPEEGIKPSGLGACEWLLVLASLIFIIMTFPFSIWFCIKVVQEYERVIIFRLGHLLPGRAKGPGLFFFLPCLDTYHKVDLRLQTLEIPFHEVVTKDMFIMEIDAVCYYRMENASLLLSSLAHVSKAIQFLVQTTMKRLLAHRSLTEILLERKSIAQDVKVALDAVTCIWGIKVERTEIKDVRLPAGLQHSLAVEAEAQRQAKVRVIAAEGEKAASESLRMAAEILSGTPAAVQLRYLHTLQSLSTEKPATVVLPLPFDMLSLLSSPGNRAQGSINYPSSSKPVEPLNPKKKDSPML

[7] = biological target: T6, Podocin, endogenous (mouse (endogenous in differentiated mouse podocytes and C57Bl/6 renal cortex)); experiment: co-IP; endogenous proteins in differentiated mouse podocytes; lysate incubated with anti-flot2, anti-podocin or IgG for 4 h at 4 °C, protein A/G agarose; western blot
[8] = biological target: T7, Flotillin-2 (Flot2), endogenous (mouse (endogenous in differentiated mouse podocytes and C57Bl/6 renal cortex)) (UniProt Q60634); experiment: co-IP; endogenous proteins in renal cortex lysates from C57Bl/6 mice; reciprocal immunoprecipitation with anti-flot2 or anti-podocin
T7 sequence: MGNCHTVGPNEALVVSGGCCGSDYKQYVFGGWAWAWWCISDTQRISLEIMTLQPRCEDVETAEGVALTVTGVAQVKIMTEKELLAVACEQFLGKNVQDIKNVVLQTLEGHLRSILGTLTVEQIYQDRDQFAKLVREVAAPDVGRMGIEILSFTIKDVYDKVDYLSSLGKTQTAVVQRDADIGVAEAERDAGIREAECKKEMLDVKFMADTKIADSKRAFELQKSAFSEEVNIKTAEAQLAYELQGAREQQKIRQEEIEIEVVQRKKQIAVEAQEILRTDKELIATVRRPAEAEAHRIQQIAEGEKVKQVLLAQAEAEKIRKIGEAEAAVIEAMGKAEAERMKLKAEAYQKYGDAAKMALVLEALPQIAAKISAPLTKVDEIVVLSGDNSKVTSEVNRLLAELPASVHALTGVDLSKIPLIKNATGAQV

[9] = biological target: T7, Flotillin-2 (Flot2), endogenous (mouse (endogenous in differentiated mouse podocytes and C57Bl/6 renal cortex)); experiment: co-IP; endogenous proteins in differentiated mouse podocytes; lysate incubated with anti-flot2, anti-podocin or IgG for 4 h at 4 °C, protein A/G agarose; western blot
[10] = biological target: T8, HA-tagged Full-length flot2 (amino acids 1-428) (UniProt Q60634); experiment: co-IP; HA-tagged Flot2 constructs and Flag-tagged podocin constructs expressed in HEK-293T cells; immunoprecipitation with anti-HA or anti-Flag (IgG as control), immunoblot for the other tag
T8 sequence: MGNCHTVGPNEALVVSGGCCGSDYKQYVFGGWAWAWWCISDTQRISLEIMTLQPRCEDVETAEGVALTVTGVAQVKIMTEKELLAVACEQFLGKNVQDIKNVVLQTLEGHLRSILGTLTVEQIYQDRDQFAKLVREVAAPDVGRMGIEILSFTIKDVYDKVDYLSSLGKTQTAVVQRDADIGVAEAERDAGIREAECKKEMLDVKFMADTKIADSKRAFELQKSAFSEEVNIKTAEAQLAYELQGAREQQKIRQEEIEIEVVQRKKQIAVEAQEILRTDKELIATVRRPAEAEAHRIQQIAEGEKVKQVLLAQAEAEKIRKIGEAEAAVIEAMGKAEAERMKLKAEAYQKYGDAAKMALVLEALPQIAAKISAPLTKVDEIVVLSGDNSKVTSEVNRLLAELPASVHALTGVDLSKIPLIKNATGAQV

[11] = biological target: T9, HA-tagged flot2 domain F2 (amino acids 30-184) (UniProt Q60634); experiment: as above
T9 sequence: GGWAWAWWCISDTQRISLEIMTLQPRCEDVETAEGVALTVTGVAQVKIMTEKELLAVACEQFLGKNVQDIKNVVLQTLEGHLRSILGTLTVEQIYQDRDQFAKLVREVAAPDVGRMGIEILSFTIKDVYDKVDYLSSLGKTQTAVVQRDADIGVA

[12] = biological target: T10, HA-tagged flot2 domains F1+2 (amino acids 1-184) (UniProt Q60634); experiment: as above
T10 sequence: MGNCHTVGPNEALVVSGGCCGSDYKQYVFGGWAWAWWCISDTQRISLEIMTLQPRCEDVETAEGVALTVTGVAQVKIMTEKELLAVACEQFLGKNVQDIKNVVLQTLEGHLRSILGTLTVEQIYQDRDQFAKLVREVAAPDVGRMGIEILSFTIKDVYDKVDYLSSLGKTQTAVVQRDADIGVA

[13] = biological target: T11, GST-Flot2 (amino acids 30-184), SPFH domain (mouse) (UniProt Q60634); experiment: pull-down; GST pull-down: GST-Flot2 (30-184) or GST on GST resin; His-podocin (128-284) pulled out of the lysates; immunoblot with anti-His; only the target purified
T11 sequence: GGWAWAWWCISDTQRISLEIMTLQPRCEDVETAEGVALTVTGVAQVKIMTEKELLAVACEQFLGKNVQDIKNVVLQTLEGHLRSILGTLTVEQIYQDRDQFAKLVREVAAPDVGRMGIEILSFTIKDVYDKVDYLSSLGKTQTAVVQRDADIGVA

- binding [1]: binds
- binding [2]: binds
- binding [3]: binds
- binding [4]: binds
- binding [5]: binds
B1: HA-tagged Full-length flot2 (amino acids 1-428) (protein, UniProt Q60634 1-428)
chain: MGNCHTVGPNEALVVSGGCCGSDYKQYVFGGWAWAWWCISDTQRISLEIMTLQPRCEDVETAEGVALTVTGVAQVKIMTEKELLAVACEQFLGKNVQDIKNVVLQTLEGHLRSILGTLTVEQIYQDRDQFAKLVREVAAPDVGRMGIEILSFTIKDVYDKVDYLSSLGKTQTAVVQRDADIGVAEAERDAGIREAECKKEMLDVKFMADTKIADSKRAFELQKSAFSEEVNIKTAEAQLAYELQGAREQQKIRQEEIEIEVVQRKKQIAVEAQEILRTDKELIATVRRPAEAEAHRIQQIAEGEKVKQVLLAQAEAEKIRKIGEAEAAVIEAMGKAEAERMKLKAEAYQKYGDAAKMALVLEALPQIAAKISAPLTKVDEIVVLSGDNSKVTSEVNRLLAELPASVHALTGVDLSKIPLIKNATGAQV

- binding [6]: binds
- binding [7]: binds
B2: Flotillin-2 (Flot2), endogenous (protein, UniProt Q60634 1-428)
chain: MGNCHTVGPNEALVVSGGCCGSDYKQYVFGGWAWAWWCISDTQRISLEIMTLQPRCEDVETAEGVALTVTGVAQVKIMTEKELLAVACEQFLGKNVQDIKNVVLQTLEGHLRSILGTLTVEQIYQDRDQFAKLVREVAAPDVGRMGIEILSFTIKDVYDKVDYLSSLGKTQTAVVQRDADIGVAEAERDAGIREAECKKEMLDVKFMADTKIADSKRAFELQKSAFSEEVNIKTAEAQLAYELQGAREQQKIRQEEIEIEVVQRKKQIAVEAQEILRTDKELIATVRRPAEAEAHRIQQIAEGEKVKQVLLAQAEAEKIRKIGEAEAAVIEAMGKAEAERMKLKAEAYQKYGDAAKMALVLEALPQIAAKISAPLTKVDEIVVLSGDNSKVTSEVNRLLAELPASVHALTGVDLSKIPLIKNATGAQV

- binding [2]: binds
B3: HA-tagged flot2 domain F2 (amino acids 30-184) (domain or fragment, UniProt Q60634 30-184)
chain: GGWAWAWWCISDTQRISLEIMTLQPRCEDVETAEGVALTVTGVAQVKIMTEKELLAVACEQFLGKNVQDIKNVVLQTLEGHLRSILGTLTVEQIYQDRDQFAKLVREVAAPDVGRMGIEILSFTIKDVYDKVDYLSSLGKTQTAVVQRDADIGVA

- binding [8]: binds
- binding [9]: binds
B4: Podocin, endogenous (protein, UniProt Q91X05 1-385)
chain: MDSRARSSSREAHGRSSRSSSRDDKKAKAGRGSRGRARPDAGAERQSTGRTATRGEPRAPAATATVVDVDEVRGPGEEGTEVVALLESERPEEGIKPSGLGACEWLLVLASLIFIIMTFPFSIWFCIKVVQEYERVIIFRLGHLLPGRAKGPGLFFFLPCLDTYHKVDLRLQTLEIPFHEVVTKDMFIMEIDAVCYYRMENASLLLSSLAHVSKAIQFLVQTTMKRLLAHRSLTEILLERKSIAQDVKVALDAVTCIWGIKVERTEIKDVRLPAGLQHSLAVEAEAQRQAKVRVIAAEGEKAASESLRMAAEILSGTPAAVQLRYLHTLQSLSTEKPATVVLPLPFDMLSLLSSPGNRAQGSINYPSSSKPVEPLNPKKKDSPML

- binding [10]: binds
- binding [11]: binds
- binding [12]: binds
B5: Flag-tagged Full-length podocin (amino acids 1-385) (protein, UniProt Q91X05 1-385)
chain: MDSRARSSSREAHGRSSRSSSRDDKKAKAGRGSRGRARPDAGAERQSTGRTATRGEPRAPAATATVVDVDEVRGPGEEGTEVVALLESERPEEGIKPSGLGACEWLLVLASLIFIIMTFPFSIWFCIKVVQEYERVIIFRLGHLLPGRAKGPGLFFFLPCLDTYHKVDLRLQTLEIPFHEVVTKDMFIMEIDAVCYYRMENASLLLSSLAHVSKAIQFLVQTTMKRLLAHRSLTEILLERKSIAQDVKVALDAVTCIWGIKVERTEIKDVRLPAGLQHSLAVEAEAQRQAKVRVIAAEGEKAASESLRMAAEILSGTPAAVQLRYLHTLQSLSTEKPATVVLPLPFDMLSLLSSPGNRAQGSINYPSSSKPVEPLNPKKKDSPML

- binding [11]: binds
B6: Flag-tagged podocin domain P3 (amino acids 128-284) (domain or fragment, UniProt Q91X05 128-284)
chain: KVVQEYERVIIFRLGHLLPGRAKGPGLFFFLPCLDTYHKVDLRLQTLEIPFHEVVTKDMFIMEIDAVCYYRMENASLLLSSLAHVSKAIQFLVQTTMKRLLAHRSLTEILLERKSIAQDVKVALDAVTCIWGIKVERTEIKDVRLPAGLQHSLAVEA

- binding [13]: binds
B7: His-podocin (amino acids 128-284), SPFH domain (domain or fragment, UniProt Q91X05 128-284)
chain: KVVQEYERVIIFRLGHLLPGRAKGPGLFFFLPCLDTYHKVDLRLQTLEIPFHEVVTKDMFIMEIDAVCYYRMENASLLLSSLAHVSKAIQFLVQTTMKRLLAHRSLTEILLERKSIAQDVKVALDAVTCIWGIKVERTEIKDVRLPAGLQHSLAVEA
